# In paper doi:10.1101/2021.04.01.438077:
# Chains of the proteins cited; added tags and fusions are not shown.
# UniProt Q9UHB6: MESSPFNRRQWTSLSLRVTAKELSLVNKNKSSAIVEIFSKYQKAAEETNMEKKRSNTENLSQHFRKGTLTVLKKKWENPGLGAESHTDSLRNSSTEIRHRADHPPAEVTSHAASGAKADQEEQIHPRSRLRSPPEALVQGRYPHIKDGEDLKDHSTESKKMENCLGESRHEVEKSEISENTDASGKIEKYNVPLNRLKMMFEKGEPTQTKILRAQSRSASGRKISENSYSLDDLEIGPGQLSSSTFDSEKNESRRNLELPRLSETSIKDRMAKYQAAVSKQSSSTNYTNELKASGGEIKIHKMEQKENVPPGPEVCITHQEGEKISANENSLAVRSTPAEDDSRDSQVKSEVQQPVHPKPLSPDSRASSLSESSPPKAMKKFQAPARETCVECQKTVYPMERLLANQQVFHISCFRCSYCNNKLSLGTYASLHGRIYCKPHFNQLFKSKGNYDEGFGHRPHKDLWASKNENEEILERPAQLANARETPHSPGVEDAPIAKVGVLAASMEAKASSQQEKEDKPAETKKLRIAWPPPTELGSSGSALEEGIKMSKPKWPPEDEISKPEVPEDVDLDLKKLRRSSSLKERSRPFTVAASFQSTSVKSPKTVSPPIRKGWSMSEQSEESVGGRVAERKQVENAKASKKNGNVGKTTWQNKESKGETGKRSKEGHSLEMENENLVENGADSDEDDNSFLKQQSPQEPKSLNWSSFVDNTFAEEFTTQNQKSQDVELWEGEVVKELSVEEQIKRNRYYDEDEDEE
# Numbering of substitutions follows the chain as printed. No constants are given. Whether binding was seen depends on the method and setting. Binding seen in cells or lysates may run through a third protein. Some entries that bind do so weakly or less than the wild type. Tags and fused reporters may be left off the sequences shown.
# Tests used:
# [1] = biological target: T1, GST-Rab40b (UniProt Q12829); test: pull-down
# T1 sequence: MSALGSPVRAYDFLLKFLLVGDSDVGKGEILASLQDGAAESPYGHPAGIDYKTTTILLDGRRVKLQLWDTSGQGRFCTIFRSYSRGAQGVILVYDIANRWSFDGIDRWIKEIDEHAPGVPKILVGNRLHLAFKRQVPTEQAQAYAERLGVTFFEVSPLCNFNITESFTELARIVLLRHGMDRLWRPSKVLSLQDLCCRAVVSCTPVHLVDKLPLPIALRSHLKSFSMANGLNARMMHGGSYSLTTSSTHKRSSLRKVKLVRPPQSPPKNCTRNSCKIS
# [2] = biological target: T2, Flag-Rab40b (wild type) (UniProt Q12829); test: co-IP
# T2 sequence: T1 sequence
# [3] = biological target: T3, Flag-Rab40b-4A (UniProt Q12829); test: co-IP
# T3 sequence: T1 sequence with L212A, P213A, L214A, P215A
substance,measurement,setting,value
"EPLIN (Epithelial Protein Lost In Neoplasia), endogenous (from UniProt Q9UHB6 1-759)",binding,[1],binds
same,binding,[2],binds weakly
same,binding,[3],binds
